Results reported in paper PMC7037232, “Effect of Cholesterol on the Organic Cation Transporter OCTN1 (SLC22A4)” (International Journal of Molecular Sciences, 2020).

Assay: Enzymatic quantitation of cholesterol/CHS in proteoliposome lipids
Conditions: 10 mM MβCD; for concentration of cholesterol after MβCD treatment: proteoliposomes without added CHS
Procedure: Proteoliposomes reconstituted with the recombinant OCTN1 and added or not with CHS were incubated with MβCD as above described and then, MβCD was removed by chromatography on Sephadex G-75 column as described in Section 4.7.
Quantitation was performed using the Cholesterol Quantitation Kit MAK043 by Merck Life Science s.r.l., 20149 Milan, Italy,). Assay was performed in the presence of cholesterol esterase with absorbance measured on a microplate reader at 570 nm.

Methyl-beta-CycloDextrin [MβCD]
CHS concentration after MβCD treatment (proteoliposomes with initial 83 µg CHS/mg total lipids): 50 µg CHS/mg total lipids | CHS concentration after MβCD treatment (proteoliposomes with initial 8.3% CHS): 5% | concentration of cholesterol after MβCD treatment (10 µg/mg total lipids before treatment): 6.5 µg/mg total lipids | concentration of cholesterol after MβCD treatment (1.0% before treatment): 0.65%
